Read-outs that look alike come from different tables or passages of the source. Some of these results come from one statement about several compounds together.
Assays:
Phytophthora infestans [1] = assay type: in vivo; settings: 200 ppm; potato plants cv. Bintje, inoculated 2 days after application, assessed 5-7 days after application
Phytophthora infestans [2] = assay type: in vivo; settings: 200 ppm; potato plants cv. Bintje, inoculated 6 days after application, assessed 9-11 days after application
Plasmopara viticola [3] = experiment: Plasmopara viticola / grape / preventative (grape downy mildew); assay type: in vivo; settings: 200 ppm; grape seedlings cv. Gutedel, inoculated one day after application, assessed 6-8 days after application
Plasmopara viticola [4] = experiment: Plasmopara viticola / grape / long lasting (grape downy mildew); assay type: in vivo; settings: 200 ppm; grape seedlings cv. Gutedel, inoculated 6 days after application, assessed 11-13 days after application
Phytophthora infestans [5] = assay type: in vivo; settings: 200 ppm; tomato leaf disks, inoculated 1 day after application, assessed 5-7 days after application
Plasmopara viticola [6] = experiment: Plasmopara viticola / grape / leaf disc preventative (grape downy mildew); assay type: in vivo; settings: 200 ppm; grape vine leaf disks, inoculated 1 day after application, assessed 6-8 days after application
Pythium ultimum = Pythium ultimum / liquid culture (seedling damping off); assay type: cell-based; settings: 200 ppm; liquid culture in PDB, inhibition of growth determined photometrically 2-3 days after application

Measured: disease control

Cc1cc(C(F)(F)F)nn1CC(=O)N1CCN(c2cccc(NC(=O)c3cccc(Cl)c3O)c2)CC1 [I.ao.003, 3-chloro-2-hydroxy-N-(3-{4-[2-(5-methyl-3-trifluoromethyl-pyrazol-1-yl)-acetyl]-piperazin-1-yl}-phenyl)-benzamide]
at least 80%: Phytophthora infestans [1] | Phytophthora infestans [2] | Plasmopara viticola [3] | Plasmopara viticola [4]

Cc1cc(C(F)(F)F)nn1CC(=O)N1CCC(c2cccc(NC(=O)c3cccc(Cl)c3O)c2)CC1 [I.u.003, 3-chloro-2-hydroxy-N-(3-{1-[2-(5-methyl-3-trifluoromethyl-pyrazol-1-yl)-acetyl]-piperidin-4-yl}-phenyl)-benzamide]
at least 80%: all assays above

From US8748432B2 (priority 2011, dated 2014)
